Assay results from PubChem BioAssay AID504467 (National Center for Advancing Translational Sciences (NCATS), 2011).
Hit rate of the full screen: of about 330,000 compounds, about 7,700 (2.3%) were called active. Inconclusive results, whose numbers are uncertain, are shown with a selection of clear calls. Calls follow the shape of the dose curve; as a rule, active = well fitted inhibition curve with a large enough effect; inconclusive = small, poorly fitted or top-dose-only effect, or effect the other way; inactive = flat fitted curve, though single readings scatter. Potencies beside an inconclusive call are fits to weak or partial responses and may not hold up.

Test: qHTS screen for small molecules that inhibit ELG1-dependent DNA repair in human embryonic kidney (HEK293T) cells expressing luciferase-tagged ELG1; also: nearly all actives have a fitted effect of over 55% in size
Settings: HEK293T ELG1-luciferase reporter, luminescence, 16 h, DNA damage induced by 5-fluorouridine; series mostly up to 46.1 µM
In short: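 In this reporter screen, reduction of luminescence relative to DMSO vehicle indicated activity. Compounds and 5-fluorouridine were added together to 2,000 cells per well, incubated for 16 hr at 37 °C, then developed with ONE-Glo.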
Potency is read from the fitted curve at half-maximal effect.

| SMILES | Potency |
| --- | --- |
| COc1cccc(CN2CCN(C(=O)c3ccc(-c4ccccc4)cc3)CC2)c1 | inconclusive: 9.2 µM [inhibitor, partial curve, poor fit] |
| COC(=O)[C@@H]1Cc2c([nH]c3ccccc23)C(C)(C)N1C(=O)CCl | inconclusive: 16.4 µM [inhibitor, partial curve, poor fit] |
| Cc1nnc(NC(=O)c2ccc3c(c2)C(=O)N(CC2CCCO2)C3=O)s1 (stereo unspecified) | inconclusive: 18.4 µM [activator, partial curve] |
| CCCCN(C(=O)c1cccc(S(=O)(=O)N2CCOCC2)c1)c1c(N)n(CCC)c(=O)[nH]c1=O | inactive |
| Cc1ccc(C)c(S(=O)(=O)/N=C2\C=C(NS(=O)(=O)c3ccccc3)C(=O)c3ccccc32)c1 | active: 23.1 µM |
| O=C(NC1CCCN(Cc2ccc(Cl)cc2)C1)c1ccnc(Cl)c1 (stereo unspecified) | inconclusive: 20.6 µM [inhibitor, partial curve, poor fit] |
| COc1ccccc1C(=O)NNC(=O)C(=O)NC(C)(C)C | inconclusive: 29.1 µM [inhibitor, single point] |
| COc1ccc(C(=O)NCC(=O)N/N=C/c2cccnc2)cc1OC | inconclusive: 18.3 µM [activator, partial curve, poor fit] |
| Cc1cc(C)c2c(n1)nn1c(C)c(CCC(=O)NCc3ccco3)c(C)nc21 | inconclusive: 32.6 µM [inhibitor, partial curve, poor fit] |
| Cc1cc(OCC(=O)NNC(=S)NC(=O)c2ccc(Br)o2)ccc1Cl | inactive |
| Cc1ccc(S(=O)(=O)N2CCN(C(=O)CCc3c[nH]c4ccccc34)CC2)c(C)c1 | inconclusive: 29.1 µM [inhibitor, single point] |
| CCN(C(=O)CSc1ncnc2sccc12)c1c(N)n(Cc2ccccc2)c(=O)[nH]c1=O | inconclusive: 0.206 µM [activator, single point] |
| CCC(=O)N1CCc2nc(-c3ccccc3)sc2C1 | inconclusive: 23.1 µM [activator, partial curve] |
| COc1ccc(NC(=O)CN(c2ccc(F)cc2)S(=O)(=O)c2ccccc2)c(OC)c1 | inconclusive: 16.4 µM [inhibitor, single point] |
| CCN(CC)c1ccc2cc(C(N)=O)c(=N)oc2c1 | inconclusive: 18.3 µM [activator, single point] |
| CCCc1nnc(NC(=O)CCC(=O)N2CCC(Cc3ccccc3)CC2)s1 | inactive |
| N#C/C(=C/c1ccc(N2CCOCC2)o1)C(=O)N1CCOCC1 | inconclusive: 16.4 µM [activator, single point] |
| C=CCOc1ccc(/C=C/C(=O)OCC(=O)NCc2ccco2)cc1 | inconclusive: 25.9 µM [activator, single point] |
| O=C(C#Cc1ccccc1)c1ccco1 | inconclusive: 29.1 µM [inhibitor, single point] |
| Cc1ccc(OCc2cc(C(=O)N3CCc4[nH]cnc4C3c3ccccn3)no2)cc1C (stereo unspecified) | inactive |
| CCn1c2ccccc2c2cc(/C=N/O)ccc21 | inconclusive: 7.3 µM [inhibitor, partial curve] |

Arranged by count of non-hydrogen atoms (rising): some entries from above

| SMILES | Potency |
| --- | --- |
| CCN(CC)c1ccc2cc(C(N)=O)c(=N)oc2c1 | inconclusive: 18.3 µM [activator, single point] |
| COc1ccc(C(=O)NCC(=O)N/N=C/c2cccnc2)cc1OC | inconclusive: 18.3 µM [activator, partial curve, poor fit] |
| CCN(C(=O)CSc1ncnc2sccc12)c1c(N)n(Cc2ccccc2)c(=O)[nH]c1=O | inconclusive: 0.206 µM [activator, single point] |

Additional structures follow.

| SMILES | Potency |
| --- | --- |
| COCCn1c(=NC(=O)c2ccco2)sc2cc(C(=O)OC)ccc21 | inconclusive: 20.6 µM [activator, partial curve, poor fit] |
| O=C1CCC/C1=C/Nc1ccc2c(c1)OCO2 | inconclusive: 18.4 µM [activator, partial curve] |
| Oc1nc(Nc2cccc(Cl)c2)sc1/C=C1\C=Nc2ccccc21 | inconclusive: 29.1 µM [inhibitor, single point] |
| CCC1CN(C(=O)N2CCC(C(=O)NCc3ccc(F)cc3)CC2)c2ccccc2O1 (stereo unspecified) | inactive |
| O=C(Cn1ncc2c([nH]c3ccccc32)c1=O)Nc1ccc(F)cc1F | inconclusive: 0.184 µM [inhibitor, single point] |
| COc1ccc(N/C=C/C(=O)c2ccc(Cl)cc2)cc1 | inconclusive: 2.31 µM [activator, full curve] |
| O=c1c2ccccc2[nH]c(=S)n1Cc1cccs1 | inactive |
| COc1cc(/C=C2/NC(=O)N(Cc3ccccc3F)C2=O)ccc1O | inconclusive: 29.1 µM [activator, single point] |
| CCC(C)C(=O)Nc1nc(C)c(-c2csc(Nc3cc(OC)ccc3OC)n2)s1 (stereo unspecified) | inconclusive: 29.1 µM [inhibitor, single point] |
| Cc1ccc(/C=C/S(=O)(=O)NCC(=O)OCC(=O)Nc2ccc(C(=O)N(C)C)cc2)cc1 | inconclusive: 29.1 µM [activator, single point] |
| COC(=O)c1c(-c2ccc(F)cc2)csc1NC(=O)c1ccco1 | inconclusive: 7.31 µM [activator, partial curve] |
| CC(NC(=O)COC(=O)c1cc(NS(=O)(=O)c2ccc(Cl)c([N+](=O)[O-])c2)ccc1O)C1CC2CCC1C2 (stereo unspecified) | inconclusive: 29.1 µM [inhibitor, single point] |
| COc1ccc(NS(=O)(=O)c2cc(NC(=O)C3=NN(c4ccccc4)C(=O)CC3)ccc2OC)cc1 | inconclusive: 25.9 µM [inhibitor, single point] |
| COC(=O)c1ccc(COc2ccc(/C=N/N3CCN(C)CC3)cc2)cc1 | inconclusive: 5.17 µM [activator, partial curve] |
| Cc1nc2nc(-c3ccc(Cl)cc3)[nH]n2c(=O)c1C | inconclusive: 20.6 µM [activator, partial curve] |
| CO/N=C/C(C#N)=C/c1ccc(OC)cc1 | inconclusive: 20.6 µM [activator, partial curve] |
| CCN1CCN(C(=O)c2cc(COc3ccc(F)cc3F)on2)[C@@H](C)C1=O | inconclusive: 23.1 µM [inhibitor, partial curve, poor fit] |
| Cc1cccc(NC(=S)NCCc2c[nH]c3ccccc23)c1 | inactive |
| O=C1c2ccccc2COc2ccc(O)cc21 | inconclusive: 13 µM [activator, partial curve, poor fit] |
| COc1ccc(CCNC(=O)c2cccc(S(=O)(=O)N3CCc4ccccc4C3)c2)cc1 | inconclusive: 22.4 µM [inhibitor, single point] |
